Laboratory results as given in patent publication US20140113348A1.
These are yes or no findings as the source states them, for the method shown. Some entries that bind do so weakly or less than the wild type.

Legend:
[1] = target: HER2 on SKBR3 cells (UniProt P04626); assay: FACS
[2] = target: HER2 on SKBR3 cells (UniProt P04626); assay: FACS, Alexa 647 labeled antibody on SKBR3 cells

B1: CDR-grafted meditope-enabled trastuzumab (trastuzumab-like CDRs on a cetuximab-like framework) (antibody, V domains shown)
VH: QVQLKQSGPGLVQPSQSLSITCTVSGFNIKDTYIHWVRQSPGKGLEWLGRIYPTNGYTRYNTPFTSRLSINADNSKNQVFFKMNSLQSNDTAIYYCARWGGDGFYAMDYWGQGTLVTVSS
VL: DILLTQSPVILSVSPGERVSFSCRASQDINTAIAWYQQRTNGSPRLLIYSASFLYSGVPSRFSGSRSGTDFTLSINSVESEDIADYYCQQHYTTPPTFGAGTKVEIKR
[1]
  binding: binds
[2]
  binding: binds
